This passage reports yeast fitness results from the RNAGym collection of RNA variant scans (doi:10.1126/science.aae0568).

B1: tRNA (parent)
chain: GUUCCGUUGGCGUAAUGGUAACGCGUCUCCCUCCUAAGGAGAAGACUGCGGGUUCGAGUCCCGUACGGAACG

Variants at the background level are over-represented here.

The series covers variants of B1. Description: yeast fitness relative to wild type (ratio to wild type); higher = fitter; tRNA-Arg(CCU), competitive growth, 37 C, YPD. An outline of the steps: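 Start and end populations of a pooled competition were compared by 100-nucleotide paired-end sequencing of gene amplicons. The Saccharomyces cerevisiae strains carried tRNA-Arg(CCU) gene variants at the native genomic locus, synthesised with a 3% per-site mutation rate at 69 sites, and competed in YPD at 37°C for 24 hours in six parallel replicates. Darwinian fitness relative to wild type was based on the change in genotype frequencies. Genotypes required ≥ 100 starting reads, and estimates < 0.5 were set to 0.5.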
With U8A G23A C30G, the yeast fitness was no more than 0.5. As for C24U C55U C60G U64A G67A, the yeast fitness was no more than 0.5.

Regarding G10A A20U C27U U35C G48C C60A, the yeast fitness is no more than 0.5.

G12A A15U C66U: the yeast fitness was no more than 0.5.

With U8G A57G A65G, the yeast fitness was no more than 0.5. On to U8C A15C A45C, for which the yeast fitness worked out at 0.674. Turning to C4A U8C G18C C33U G48A, the yeast fitness was no more than 0.5. In the case of A15G G58C C62G it was no more than 0.5.

Turning to C4A U32C G50A A65U, the yeast fitness is no more than 0.5. With G18C C27U A45C A69G, the yeast fitness is no more than 0.5.

Regarding A20C C24A G56A C62U C66U A70C, the yeast fitness is no more than 0.5.

Regarding C30U A43C G67U, the yeast fitness worked out at 0.571.

For the variant U3G C11G U13A C30G, the yeast fitness was no more than 0.5.

As to C5G A15C C62U, the yeast fitness was no more than 0.5. In the case of U54A U59C C61G it was no more than 0.5.

Turning to A15G A21G C34G A45G, the yeast fitness was no more than 0.5.

As to C27U U35A G50C G51C A69U, the yeast fitness is no more than 0.5. Next, C29G C33U G56U: no more than 0.5; U26G C55G: 0.636; A15G U26G C31G U32A: no more than 0.5.

For U8C C29U A42U A43U C55G, the yeast fitness was no more than 0.5.

As to U7A C30U G39A A40G G67A, the yeast fitness is no more than 0.5.

Turning to C29A A43G A57U, the yeast fitness was no more than 0.5. In the case of G9A C33U G38C A40U A42C A57G it was no more than 0.5; in that of G6A C11G C30U C46G G58C, no more than 0.5. Next, C33A U35C A42C A45C U47G: no more than 0.5.

G9A A21U A36G A40C C49U C66U: the yeast fitness was no more than 0.5. Next, C5U C22A C29U G51C: no more than 0.5. Next, U35A A42C A69U A70U: no more than 0.5.

Turning to A15U U28C C55G G63A G67U A70C, the yeast fitness was no more than 0.5. In the case of C4A C31A C33G it was no more than 0.5; in that of C4U C33A G48C, no more than 0.5. For the variant A15U G41C A42U U64C, the yeast fitness is no more than 0.5.

Turning to C33G C34G A43C G48C A70C, the yeast fitness is no more than 0.5. In the case of C5G C22A U28C A40U U53C C60A it was no more than 0.5; in that of G12U G39A C66G, no more than 0.5. Next, C5U A21G U32C A65U G68A: no more than 0.5.

U16A G17A A20G C22G C61U G68C: the yeast fitness stood at 0.559. In the case of A20G C31U G41C A43C C60G it was no more than 0.5; in that of G9A A15U A57G, no more than 0.5; in that of C4U G9C A45G, no more than 0.5.

Regarding A15U C33G C49A C60G, the yeast fitness is no more than 0.5.

As for G17A A45U G51A, the yeast fitness is no more than 0.5. In the case of C4A C30U A69C it was no more than 0.5. Consider C4U C55U A65G, for which the yeast fitness worked out at 0.554. Next, C5A G17A A43U C55U: no more than 0.5; G25C C33A A57U A69U: 0.548; A36U C61U C66U: 0.582. In the case of U2A G17C A42C G50C it was no more than 0.5; in that of C5U C31U A37C A43U G50C A57G, no more than 0.5; in that of A20U A37U C55U, no more than 0.5. Next, A37C C46G C60U: no more than 0.5; A36G C49U A69C: 0.836; A14U C24U C33A A42C: no more than 0.5.

As for U3A C4U C5U, the yeast fitness was determined as 0.594. Next, G39C A40G A57U: no more than 0.5.

G6A C24U U32G A40U U64G: the yeast fitness is no more than 0.5.

Take A15U C33A A37G: the yeast fitness was no more than 0.5.

Consider C5U C22U C33U C55A C61A, for which the yeast fitness is no more than 0.5. On to C34A A42C G50A G56A, for which the yeast fitness is no more than 0.5. In the case of A21C C24U C62U G68C it was no more than 0.5; in that of C4U A20U, 0.988; in that of U26A A43U G63C, no more than 0.5. Next, A20C C33U G41A G63A: no more than 0.5. For the variant U7A G12A C30U, the yeast fitness was no more than 0.5. Next, A40U U54A C55U: no more than 0.5.

In the case of C5G U16G C29A, the yeast fitness was no more than 0.5. In the case of C27U C29A G38C A57G A65C it was no more than 0.5; in that of C27U C34U G44A A65G, no more than 0.5.

In the case of G12C C22A C46A C60G, the yeast fitness was no more than 0.5.

Consider C29A C30U C46U G58C, for which the yeast fitness is no more than 0.5. In the case of C5A A14G G25A C30A A57U it was no more than 0.5; in that of C55G A69C, 0.593. In the case of G9C U26G G50C C55G C61G it was no more than 0.5; in that of C5U G6C G44C U59C, no more than 0.5.

Regarding C24U A43G C60A, the yeast fitness was no more than 0.5. Take A15G G17A U26C C33U G39C C55A G67C: the yeast fitness is no more than 0.5. Next, C11G C22A C31A C61A: no more than 0.5; C5G C11U A42U G68A: no more than 0.5. Next, U2C A20C G68A: 0.614; U19G C29U G39C A42U G67A A69C: no more than 0.5.

Consider A15C G39C A40C A45U, for which the yeast fitness is no more than 0.5. Next, C11U G17C C62U A69U: 0.567; G17C C31G A45C U54C: no more than 0.5. Next, A21U G25A G56C: no more than 0.5; U3A G18A U47C C49G C55G C60A C62A G68A A69U: no more than 0.5; U47G A57U C66U: no more than 0.5. Next, U8A G18A C30A U32A U35G C62U: no more than 0.5; C5A U19G G50A: no more than 0.5.

On to G17C C22G C30U G41C, for which the yeast fitness came to 0.612. Regarding U16C A20C C27U C46A, the yeast fitness is no more than 0.5.

In the case of G10A U13A, the yeast fitness was 0.684. In the case of C11U C27U C31A U35C C55G C66U it was no more than 0.5; in that of G6C C24G C34U U53C C55G A69C, no more than 0.5; in that of C5A C30U U47A G67C, no more than 0.5. Next, G41A A45U U53G: no more than 0.5; C31U A40G G48C C66U: no more than 0.5; C5G U53C A65C: no more than 0.5.

On to C4U C5A A15U C34U, for which the yeast fitness is no more than 0.5. As to C11U C34G A40C G51C, the yeast fitness was no more than 0.5.

With C5A A14C G23A C24G A36U, the yeast fitness was no more than 0.5. Next, U3A U26C C62A C66G: no more than 0.5; C5G G41A A43G C60U A70C: no more than 0.5. Next, U53C C66U A69U: no more than 0.5. Next, G12C C49A: 0.562; C4A U54A C62U A65G G68A: no more than 0.5. Consider G9C A40C A42C A69C A70C, for which the yeast fitness was no more than 0.5. In the case of U2A G10A A14C C24U C31G G51C it was no more than 0.5; in that of U3C U7C G10A C24G, no more than 0.5; in that of U7G A21U C29A C55A A69U, no more than 0.5. Take A40C C49U A69C: the yeast fitness was 0.592. Next, A14C C60G: no more than 0.5; A15G A42C G51C G67C: no more than 0.5. Turning to C22U C31G G38A U47A, the yeast fitness is no more than 0.5. In the case of G10A C11U A36C C49A it was no more than 0.5; in that of U2A C5A U64G C66U, no more than 0.5. In the case of A21C A36U A37G A42C U64A it was no more than 0.5. Next, U13A A37U: 0.63; C5A U8A C46G: no more than 0.5; U16C A40U A57C A70U: 0.585. Take U28C U35A A40U A57U: the yeast fitness was no more than 0.5. In the case of C24G A36G G56A G67A it was no more than 0.5; in that of C4G C5A U13A A21C C33U G52A A57G G67U, no more than 0.5; in that of U35G A43U G56A, no more than 0.5.

On to G10A C24G G58A, for which the yeast fitness is no more than 0.5. In the case of U16A A20G A36C C49G C61G C62G it was no more than 0.5. In the case of U19A C30A A43U G58C A65U it was no more than 0.5; in that of G17A A42G U64A, 0.58. In the case of C4G U19G G44A C46G it was no more than 0.5; in that of U13A C29A C31G A57U C60A G68C, no more than 0.5. Turning to G12A C62G G63A, the yeast fitness was no more than 0.5. With G6A C30U G56C, the yeast fitness is no more than 0.5. Turning to A15C A40U A70U, the yeast fitness turned out to be 0.563. Regarding U32C A43G A65C, the yeast fitness came out at 0.913.

Take U26G A37G G51C: the yeast fitness was 0.801.

With G6A A15G G58A G68C, the yeast fitness is no more than 0.5.

Take G9C A15G C34U G50A: the yeast fitness is no more than 0.5. In the case of C29G U47A C55G it was no more than 0.5; in that of G10A A21G C29A A69C, no more than 0.5; in that of C5U A21C C31G C60G, no more than 0.5. In the case of C4U G39U it was 0.834; in that of U8G C55U, 0.569. In the case of U13A G23C C27G U53C C61A G68A A70C it was no more than 0.5; in that of C4U C11G C62U, no more than 0.5; in that of A20U A21C C31A A70U, no more than 0.5.

Consider U2G C5U A21C, for which the yeast fitness was no more than 0.5.

For the variant C24G C29U C34G U35C C46G, the yeast fitness was no more than 0.5. Next, A21U A37U A45U: no more than 0.5. In the case of A21U C62U C66G it was no more than 0.5; in that of U7A A21C C31G C62U A69G, no more than 0.5.

As to G9A C11U C49G U64A A69U, the yeast fitness is no more than 0.5.

For G9C U64A G67C A69U, the yeast fitness was no more than 0.5. In the case of A43G G56A C66U G68U it was 0.557; in that of G12A U16G U26A C34U G50A A69U, no more than 0.5. In the case of C5G A21G C33A G68C A69U it was no more than 0.5; in that of G23C A40U A42C C49A C66A, no more than 0.5.

Consider U3G C29G C31G A36C, for which the yeast fitness is no more than 0.5. As to U3C C5U G17C U26G G67A, the yeast fitness is no more than 0.5. For the variant C11U U53A A65U, the yeast fitness is no more than 0.5. In the case of C5U A14G C24A G25A C31A it was no more than 0.5; in that of A15U A21G A43U, no more than 0.5; in that of G9C C24U G48C G51A G63A, no more than 0.5. Next, A21G C31A A65U: no more than 0.5; U3A C27A C62A: no more than 0.5; U8G U19A C49G G56U: no more than 0.5.

Turning to C11G C60A, the yeast fitness is no more than 0.5. In the case of C33A A40U C55U C62U it was no more than 0.5.
